In the supplement of paper PMC10849652:
The other results are listed elsewhere or left out.

Sequences of proteins named here, by UniProt entry; tags and fusion partners are left off. A change or cut given only in a name is not applied to a line headed by its entry.
UniProt Q9BXP2: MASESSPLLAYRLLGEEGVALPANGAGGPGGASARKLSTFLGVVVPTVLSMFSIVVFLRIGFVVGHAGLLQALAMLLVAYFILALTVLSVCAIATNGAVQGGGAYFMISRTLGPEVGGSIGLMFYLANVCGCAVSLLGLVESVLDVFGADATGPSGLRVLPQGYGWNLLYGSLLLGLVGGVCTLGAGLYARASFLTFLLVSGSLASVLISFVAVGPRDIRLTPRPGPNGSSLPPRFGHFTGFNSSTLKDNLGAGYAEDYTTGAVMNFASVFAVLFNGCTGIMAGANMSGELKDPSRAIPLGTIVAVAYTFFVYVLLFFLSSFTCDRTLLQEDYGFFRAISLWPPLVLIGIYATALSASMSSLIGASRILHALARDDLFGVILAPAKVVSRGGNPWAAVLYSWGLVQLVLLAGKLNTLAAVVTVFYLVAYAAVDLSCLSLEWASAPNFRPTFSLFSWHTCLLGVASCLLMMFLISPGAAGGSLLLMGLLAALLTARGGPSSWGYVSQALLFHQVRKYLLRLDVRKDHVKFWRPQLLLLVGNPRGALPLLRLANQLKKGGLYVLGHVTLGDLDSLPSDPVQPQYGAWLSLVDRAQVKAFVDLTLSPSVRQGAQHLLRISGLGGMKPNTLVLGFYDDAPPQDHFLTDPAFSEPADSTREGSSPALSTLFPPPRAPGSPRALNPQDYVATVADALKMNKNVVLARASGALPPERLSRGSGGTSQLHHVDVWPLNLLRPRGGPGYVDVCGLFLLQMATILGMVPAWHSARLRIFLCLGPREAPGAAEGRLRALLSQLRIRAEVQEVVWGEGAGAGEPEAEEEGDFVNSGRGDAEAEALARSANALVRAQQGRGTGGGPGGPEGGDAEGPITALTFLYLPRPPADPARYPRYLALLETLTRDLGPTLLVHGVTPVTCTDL
UniProt P31947: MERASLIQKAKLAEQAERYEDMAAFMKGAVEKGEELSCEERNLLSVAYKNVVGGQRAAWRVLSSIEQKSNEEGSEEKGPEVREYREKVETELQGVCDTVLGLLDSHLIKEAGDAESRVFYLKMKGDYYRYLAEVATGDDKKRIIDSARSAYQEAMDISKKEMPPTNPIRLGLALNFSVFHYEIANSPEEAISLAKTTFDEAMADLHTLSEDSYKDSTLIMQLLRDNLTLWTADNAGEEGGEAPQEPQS
UniProt P84101: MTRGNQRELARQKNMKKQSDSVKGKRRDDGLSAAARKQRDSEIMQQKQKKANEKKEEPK
UniProt Q8IX90, whole entry, looked up: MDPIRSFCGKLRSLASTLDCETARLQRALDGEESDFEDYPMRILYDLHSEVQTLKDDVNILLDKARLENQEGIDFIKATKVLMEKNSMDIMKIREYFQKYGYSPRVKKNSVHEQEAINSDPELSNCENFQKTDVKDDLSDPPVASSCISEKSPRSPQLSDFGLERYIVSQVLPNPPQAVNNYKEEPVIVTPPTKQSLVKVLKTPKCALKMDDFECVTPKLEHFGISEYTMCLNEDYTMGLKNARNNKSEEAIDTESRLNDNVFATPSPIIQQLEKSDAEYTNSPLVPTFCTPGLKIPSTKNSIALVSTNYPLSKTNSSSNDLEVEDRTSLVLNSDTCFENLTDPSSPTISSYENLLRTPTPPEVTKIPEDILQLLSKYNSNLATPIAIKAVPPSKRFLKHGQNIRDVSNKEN
UniProt P58004: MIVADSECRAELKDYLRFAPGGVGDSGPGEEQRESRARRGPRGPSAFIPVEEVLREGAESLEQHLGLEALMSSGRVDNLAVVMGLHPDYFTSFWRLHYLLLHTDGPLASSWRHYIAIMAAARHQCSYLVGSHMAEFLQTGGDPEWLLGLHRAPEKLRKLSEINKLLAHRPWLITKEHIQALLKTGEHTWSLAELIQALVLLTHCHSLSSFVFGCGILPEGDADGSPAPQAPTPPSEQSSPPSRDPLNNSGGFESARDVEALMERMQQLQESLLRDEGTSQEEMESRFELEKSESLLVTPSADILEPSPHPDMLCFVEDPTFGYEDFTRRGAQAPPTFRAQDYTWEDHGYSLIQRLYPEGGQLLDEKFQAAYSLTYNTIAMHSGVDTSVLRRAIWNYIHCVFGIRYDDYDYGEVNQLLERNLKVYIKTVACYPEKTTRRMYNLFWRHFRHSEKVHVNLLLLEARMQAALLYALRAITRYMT
UniProt Q99574: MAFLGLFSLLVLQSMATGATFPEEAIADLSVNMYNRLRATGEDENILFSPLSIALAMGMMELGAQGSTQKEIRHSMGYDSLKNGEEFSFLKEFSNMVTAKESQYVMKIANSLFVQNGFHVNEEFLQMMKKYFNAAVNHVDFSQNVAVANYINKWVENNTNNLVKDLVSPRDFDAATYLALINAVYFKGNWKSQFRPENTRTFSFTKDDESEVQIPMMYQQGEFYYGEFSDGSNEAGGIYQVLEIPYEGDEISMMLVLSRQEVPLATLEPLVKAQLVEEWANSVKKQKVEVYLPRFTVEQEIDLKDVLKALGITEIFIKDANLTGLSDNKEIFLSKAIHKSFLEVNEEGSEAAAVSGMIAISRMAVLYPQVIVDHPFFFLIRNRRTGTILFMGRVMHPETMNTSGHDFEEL
UniProt Q9H9B4: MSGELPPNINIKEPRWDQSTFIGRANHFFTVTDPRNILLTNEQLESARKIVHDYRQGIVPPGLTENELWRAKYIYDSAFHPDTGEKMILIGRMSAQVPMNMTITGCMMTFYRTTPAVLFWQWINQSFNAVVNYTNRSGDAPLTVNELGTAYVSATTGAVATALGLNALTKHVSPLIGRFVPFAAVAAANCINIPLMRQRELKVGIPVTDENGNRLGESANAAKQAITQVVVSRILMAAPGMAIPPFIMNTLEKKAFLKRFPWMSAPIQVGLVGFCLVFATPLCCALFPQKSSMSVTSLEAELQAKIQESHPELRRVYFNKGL
UniProt P36955: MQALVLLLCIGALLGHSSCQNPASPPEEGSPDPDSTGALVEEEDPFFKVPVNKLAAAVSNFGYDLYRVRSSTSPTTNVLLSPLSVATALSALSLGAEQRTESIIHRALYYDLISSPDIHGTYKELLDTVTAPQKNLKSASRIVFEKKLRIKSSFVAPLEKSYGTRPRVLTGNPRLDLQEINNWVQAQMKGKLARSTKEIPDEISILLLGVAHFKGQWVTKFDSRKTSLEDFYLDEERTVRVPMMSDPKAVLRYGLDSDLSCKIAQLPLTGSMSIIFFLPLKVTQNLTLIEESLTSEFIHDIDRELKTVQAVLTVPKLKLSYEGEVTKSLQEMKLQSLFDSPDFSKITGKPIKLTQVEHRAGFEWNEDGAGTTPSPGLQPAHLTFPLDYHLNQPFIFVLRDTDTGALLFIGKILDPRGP
UniProt O95562: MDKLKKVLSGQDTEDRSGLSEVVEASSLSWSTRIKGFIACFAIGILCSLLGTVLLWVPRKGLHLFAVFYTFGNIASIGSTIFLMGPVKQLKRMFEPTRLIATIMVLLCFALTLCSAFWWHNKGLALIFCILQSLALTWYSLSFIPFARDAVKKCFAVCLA
UniProt P41440: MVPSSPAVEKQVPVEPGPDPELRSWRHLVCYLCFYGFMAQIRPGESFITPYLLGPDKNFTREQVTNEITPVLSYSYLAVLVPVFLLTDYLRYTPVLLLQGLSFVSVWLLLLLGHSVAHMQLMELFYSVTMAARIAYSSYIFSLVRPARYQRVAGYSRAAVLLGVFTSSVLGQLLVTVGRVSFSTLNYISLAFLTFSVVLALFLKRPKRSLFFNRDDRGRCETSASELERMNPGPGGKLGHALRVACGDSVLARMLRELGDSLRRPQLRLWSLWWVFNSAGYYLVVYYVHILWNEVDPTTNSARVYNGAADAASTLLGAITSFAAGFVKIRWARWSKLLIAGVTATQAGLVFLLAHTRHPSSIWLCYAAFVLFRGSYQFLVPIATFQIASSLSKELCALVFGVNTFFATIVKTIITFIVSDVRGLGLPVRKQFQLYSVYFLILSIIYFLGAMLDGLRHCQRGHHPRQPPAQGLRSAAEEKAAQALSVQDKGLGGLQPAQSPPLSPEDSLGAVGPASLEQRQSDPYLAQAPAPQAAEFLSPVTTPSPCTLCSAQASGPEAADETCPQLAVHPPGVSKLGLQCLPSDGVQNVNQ
UniProt O75368: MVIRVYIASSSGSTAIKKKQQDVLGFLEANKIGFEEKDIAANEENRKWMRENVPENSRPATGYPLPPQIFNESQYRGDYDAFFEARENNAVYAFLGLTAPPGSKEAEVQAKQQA
UniProt P34896: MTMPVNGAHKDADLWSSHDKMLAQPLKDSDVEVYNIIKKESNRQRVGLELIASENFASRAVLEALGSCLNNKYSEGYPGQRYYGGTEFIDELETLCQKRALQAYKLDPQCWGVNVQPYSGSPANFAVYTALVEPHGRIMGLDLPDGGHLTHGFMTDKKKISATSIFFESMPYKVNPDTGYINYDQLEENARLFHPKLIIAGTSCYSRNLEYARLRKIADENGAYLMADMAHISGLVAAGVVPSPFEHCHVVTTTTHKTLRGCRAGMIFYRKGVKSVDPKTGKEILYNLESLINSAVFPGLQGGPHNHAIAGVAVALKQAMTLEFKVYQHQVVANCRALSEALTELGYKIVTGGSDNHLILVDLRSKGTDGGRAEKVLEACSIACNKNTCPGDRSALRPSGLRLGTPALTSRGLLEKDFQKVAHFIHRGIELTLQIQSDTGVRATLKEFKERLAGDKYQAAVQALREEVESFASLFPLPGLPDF
UniProt Q14493, whole entry, looked up: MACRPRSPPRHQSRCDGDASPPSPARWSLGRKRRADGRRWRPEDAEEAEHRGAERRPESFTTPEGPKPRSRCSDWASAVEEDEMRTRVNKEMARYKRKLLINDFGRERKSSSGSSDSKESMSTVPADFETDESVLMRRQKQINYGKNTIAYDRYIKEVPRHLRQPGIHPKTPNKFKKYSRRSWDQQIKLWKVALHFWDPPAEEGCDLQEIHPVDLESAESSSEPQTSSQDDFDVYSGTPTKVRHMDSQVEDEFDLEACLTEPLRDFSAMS
UniProt Q96BI1: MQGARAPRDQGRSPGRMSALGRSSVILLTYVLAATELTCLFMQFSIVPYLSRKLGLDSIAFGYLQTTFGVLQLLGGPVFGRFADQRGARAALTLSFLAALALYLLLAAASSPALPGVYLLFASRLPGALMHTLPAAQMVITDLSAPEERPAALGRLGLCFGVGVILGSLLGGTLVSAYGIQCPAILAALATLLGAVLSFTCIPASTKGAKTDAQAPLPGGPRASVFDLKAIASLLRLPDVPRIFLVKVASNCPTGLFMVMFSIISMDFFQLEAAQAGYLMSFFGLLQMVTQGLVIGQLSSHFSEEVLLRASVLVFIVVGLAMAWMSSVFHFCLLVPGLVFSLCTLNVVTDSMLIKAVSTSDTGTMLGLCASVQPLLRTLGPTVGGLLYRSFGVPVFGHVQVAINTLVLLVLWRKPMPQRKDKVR
UniProt Q9BRV8: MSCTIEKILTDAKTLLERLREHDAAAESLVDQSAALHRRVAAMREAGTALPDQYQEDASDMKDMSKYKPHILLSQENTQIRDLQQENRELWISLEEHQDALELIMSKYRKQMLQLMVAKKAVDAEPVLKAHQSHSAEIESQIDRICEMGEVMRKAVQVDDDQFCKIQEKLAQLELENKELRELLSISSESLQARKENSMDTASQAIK
UniProt Q9UQ13: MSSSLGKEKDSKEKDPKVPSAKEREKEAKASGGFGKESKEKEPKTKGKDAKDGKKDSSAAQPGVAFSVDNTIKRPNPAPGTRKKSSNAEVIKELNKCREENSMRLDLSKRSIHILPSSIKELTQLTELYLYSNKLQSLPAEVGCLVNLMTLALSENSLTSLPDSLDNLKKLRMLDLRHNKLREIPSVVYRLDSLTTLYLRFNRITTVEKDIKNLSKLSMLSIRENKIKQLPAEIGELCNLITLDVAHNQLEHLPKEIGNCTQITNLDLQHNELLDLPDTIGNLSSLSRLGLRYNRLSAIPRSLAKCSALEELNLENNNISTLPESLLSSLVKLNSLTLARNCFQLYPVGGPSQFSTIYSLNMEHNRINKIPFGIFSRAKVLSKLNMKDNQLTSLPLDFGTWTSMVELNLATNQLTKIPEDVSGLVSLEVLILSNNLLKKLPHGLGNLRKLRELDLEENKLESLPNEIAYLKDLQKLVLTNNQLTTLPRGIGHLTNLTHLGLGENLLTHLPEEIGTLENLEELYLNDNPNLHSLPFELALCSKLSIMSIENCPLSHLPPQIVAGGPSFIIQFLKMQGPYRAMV
UniProt Q7L8J4: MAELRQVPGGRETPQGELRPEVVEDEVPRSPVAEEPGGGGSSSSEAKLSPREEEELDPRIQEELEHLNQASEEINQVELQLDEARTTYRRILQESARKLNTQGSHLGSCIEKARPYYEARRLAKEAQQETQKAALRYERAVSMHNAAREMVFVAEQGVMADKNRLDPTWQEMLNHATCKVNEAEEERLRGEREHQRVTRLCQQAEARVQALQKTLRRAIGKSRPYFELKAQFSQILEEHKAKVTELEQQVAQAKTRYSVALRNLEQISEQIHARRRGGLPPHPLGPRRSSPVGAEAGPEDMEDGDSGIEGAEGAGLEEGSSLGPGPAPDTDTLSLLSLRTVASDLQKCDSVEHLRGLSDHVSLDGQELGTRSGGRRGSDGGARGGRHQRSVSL

How the values were obtained:
Assay in all cases: log2 fold change, soluble protein after heating vs DMSO (PISA); higher = thermal stabilisation; K562 lysate, 10 uM; active = over 0.2 and 3.5 SD of the protein, either way, in both replicates (recomputed)
ibrutinib = compound: C=CC(=O)N1CCC[C@@H](n2nc(-c3ccc(Oc4ccccc4)cc3)c3c(N)ncnc32)C1 [ibrutinib]
Summary of the method: (§1)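 Thermal stability, expressed as log-two fold change relative to solvent controls, is given from duplicates. Crude K562 extract in PBS pH 7.4 with 1 mM MgCl2, at 1 mg/mL protein, was treated with 10 μM compound for 30 min and heated in aliquots for 3 min across 48°C-58°C. After pooling, adjustment to 0.5% NP-40 at 4°C and centrifugation at 21,000xg for 90 min, supernatant protein was measured by TMTpro 16plex LC-MS/MS with channel sums equalised.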

[1] = compound: CC(=O)c1cnc2ccc(-c3cc(Cl)c(O)c(Cl)c3)nc2c1N[C@H]1CC[C@H](CN(C)C)CC1
Summary of the method: as §1

ralimetinib = compound: CC(C)(C)Cn1c(N)nc2ccc(-c3[nH]c(C(C)(C)C)nc3-c3ccc(F)cc3)nc21 [ralimetinib]
Summary of the method: as §1

[2] = compound: CC(C)(O)CC(=O)NCCn1ccc2ncnc(Nc3ccc(Oc4cccc(C(F)(F)F)c4)c(Cl)c3)c21
Summary of the method: as §1

[3] = compound: CC(C)C1=C2N=C(C=C(N2N=C1)NCC3=CC=CC=C3)NCCCCCCN
Summary of the method: as §1

[4] = compound: CC1=C(C(CC(=O)N1)C2=CC=C(C=C2)C(F)(F)F)C(=O)NC3=C(C=C4C(=C3)C=NN4)F
Summary of the method: as §1

[5] = compound: CC1=C(C2=C(C=C1)C(=O)C3=CC=CC=C3N2CCCN)C
Summary of the method: as §1

[6] = compound: CC1=C(C=C(C=C1)NC(=O)C2=CC(=CC=C2)C(C)(C)C#N)NC3=CC4=C(C=C3)N=CN(C4=O)C
Summary of the method: as §1

[7] = compound: CC1=C(C=C(C=C1)NC(=O)C2=CC(=CC=C2)N(C)C)NC(=O)C3=CC=C(C=C3)O
Summary of the method: as §1

[8] = compound: CC1=CC=C(C=C1)SC2=C3C=C(SC3=CN=C2)C(=O)N
Summary of the method: as §1

Measured: log2 fold change

SETD1A (UniProt O15047)
inactive: ibrutinib 0.034 | [1] 0.042 | ralimetinib 0.006 | [2] -0.036 | [3] 0.011 | [4] 0.013 | [5] -0.051 | [6] -0.019 | [7] 0.029 | [8] -0.017

SLC12A9 (UniProt Q9BXP2)
inactive: ibrutinib -0.045 | [1] 0.009 | ralimetinib -0.027 | [2] -0.004 | [3] -0.066 | [4] -0.005 | [5] -0.047 | [6] -0.026 | [7] -0.035 | [8] -0.015

SFN (UniProt P31947)
inactive: ibrutinib 0.015 | [1] 0.01 | ralimetinib -0.002 | [2] 0.035 | [3] 0.016 | [4] 0.045 | [5] 0.031 | [6] -0.036 | [7] -0.004 | [8] -0.021

SERF2 (UniProt P84101)
inactive: ibrutinib -0.005 | [1] -0.062 | ralimetinib -0.016 | [2] -0.09 | [3] -0.012 | [4] 0.02 | [5] -0.039 | [6] 0.047 | [7] 0.007 | [8] 0.029

SLAIN2 (UniProt Q9P270)
inactive: ibrutinib 0.064 | [1] -0.004 | ralimetinib -0.007 | [2] -0.028 | [3] 0.013 | [4] -0.013 | [5] -0.023 | [6] 0.008 | [7] -0.005 | [8] -0.002

SKA3 (UniProt Q8IX90)
inactive: ibrutinib 0.001 | [1] -0.032 | ralimetinib -0.021 | [2] -0.038 | [3] 0.007 | [4] 0.027 | [5] -0.011 | [6] 0.027 | [7] 0.025 | [8] -0.046

SESN2 (UniProt P58004)
inactive: ibrutinib -0.001 | [1] -0.038 | ralimetinib 0.018 | [2] 0.007 | [3] 0.019 | [4] -0.051 | [5] -0.064 | [6] 0.008 | [7] 0.078 | [8] 0.205

SERPINB5 (UniProt P36952)
inactive: ibrutinib -0.024 | [1] -0.251 | ralimetinib -0.354 | [2] 0.345 | [3] 0.107 | [4] 1 | [5] 0.147 | [6] -0.075 | [7] 0.026 | [8] -0.044

SH2D2A isoform 2 (UniProt Q9NP31)
inactive: ibrutinib -0.046 | [1] -0.018 | ralimetinib -0.12 | [2] 0.044 | [3] 0.103 | [4] -0.144 | [5] -0.125 | [6] 0.003 | [7] 0.05 | [8] 0.139

SGO1 (UniProt Q5FBB7)
inactive: ibrutinib -0.033 | [1] 0.03 | ralimetinib -0.059 | [2] 0.033 | [3] 0.047 | [4] -0.059 | [5] 0.012 | [6] -0.05 | [7] 0 | [8] 0.036

SLC16A1 (UniProt P53985)
inactive: ibrutinib -0.023 | [1] 0.002 | ralimetinib 0.015 | [2] 0.015 | [3] 0.003 | [4] -0.039 | [5] -0.03 | [6] 0.042 | [7] 0 | [8] -0.006

SERPINI1 (UniProt Q99574)
inactive: ibrutinib 0.063 | [1] 0.075 | ralimetinib 0.001 | [2] 0.024 | [3] 0.005 | [4] 0.056 | [5] 0.004 | [6] -0.024 | [7] -0.028 | [8] -0.054

SFXN1 (UniProt Q9H9B4)
inactive: ibrutinib -0.026 | [1] -0.012 | ralimetinib 0.005 | [2] -0.074 | [3] -0.063 | [4] 0.019 | [5] 0.021 | [6] 0.033 | [7] 0.011 | [8] 0.025

SERPINF1 (UniProt P36955)
inactive: ibrutinib 0.076 | [1] -0.024 | ralimetinib -0.013 | [2] 0.029 | [3] -0.034 | [4] 0.251 | [5] 0.017 | [6] 0.019 | [7] -0.065 | [8] -0.034

SFT2D2 (UniProt O95562)
inactive: ibrutinib 0.08 | [1] 0.003 | ralimetinib 0.009 | [2] 0.007 | [3] -0.072 | [4] 0.039 | [5] -0.049 | [6] -0.08 | [7] 0.046 | [8] -0.04

SLC19A1 (UniProt P41440)
inactive: ibrutinib 0.049 | [1] 0.013 | ralimetinib -0.004 | [2] -0.054 | [3] -0.019 | [4] 0.019 | [5] -0.044 | [6] 0.009 | [7] 0.004 | [8] -0.003

2 successive entries already listed, quoted:
SERPINF1 (UniProt P36955)
inactive: ibrutinib 0.076 | [1] -0.024 | ralimetinib -0.013 | [2] 0.029 | [3] -0.034 | [4] 0.251 | [5] 0.017 | [6] 0.019 | [7] -0.065 | [8] -0.034

SFT2D2 (UniProt O95562)
inactive: ibrutinib 0.08 | [1] 0.003 | ralimetinib 0.009 | [2] 0.007 | [3] -0.072 | [4] 0.039 | [5] -0.049 | [6] -0.08 | [7] 0.046 | [8] -0.04

The results go on.

SH3BGRL (UniProt O75368)
inactive: ibrutinib 0.063 | [1] -0.029 | ralimetinib -0.016 | [2] -0.045 | [3] -0.005 | [4] -0.023 | [5] -0.036 | [6] 0.023 | [7] -0.018 | [8] -0.017

SHMT1 (UniProt P34896)
inactive: ibrutinib 0.018 | [1] 0.001 | ralimetinib 0.005 | [2] -0.013 | [3] -0.024 | [4] -0.005 | [5] -0.001 | [6] 0.037 | [7] -0.02 | [8] -0.027

SLBP (UniProt Q14493)
inactive: ibrutinib 0.034 | [1] 0.028 | ralimetinib 0.046 | [2] 0.063 | [3] -0.006 | [4] 0.027 | [5] 0.047 | [6] -0.025 | [7] -0.007 | [8] 0.016

SERBP1 isoform 3 (UniProt Q8NC51)
inactive: ibrutinib 0.022 | [1] 0.014 | ralimetinib -0.016 | [2] -0.001 | [3] -0.076 | [5] -0.079 | [6] -0.008 | [7] 0.06 | [8] -0.114

SF1 isoform 6 (UniProt Q15637)
inactive: ibrutinib 0.057 | [1] 0.042 | ralimetinib -0.073 | [2] -0.022 | [3] -0.008 | [4] 0.197 | [5] -0.061 | [7] 0.044 | [8] -0.008

SLC22A18 (UniProt Q96BI1)
inactive: ibrutinib 0.099 | [1] -0.047 | [3] 0.049 | [6] 0.02 | [8] 0.011

SETMAR (UniProt Q53H47)
inactive: ibrutinib 0.038 | [1] -0.003 | ralimetinib -0.012 | [2] -0.093 | [3] 0.013 | [4] -0.01 | [5] -0.044 | [6] 0.009 | [7] -0.003 | [8] -0.02

SIKE1 (UniProt Q9BRV8)
inactive: ibrutinib 0.162 | [1] 0.006 | ralimetinib 0.001 | [2] 0.046 | [3] -0.005 | [4] -0.01 | [5] -0.026 | [6] 0.062 | [7] -0.028 | [8] -0.042

SHOC2 (UniProt Q9UQ13)
inactive: ibrutinib -0.003 | [1] 0.028 | ralimetinib -0.025 | [2] -0.033 | [3] 0.002 | [4] 0.017 | [5] 0.036 | [6] -0.005 | [7] 0.042 | [8] 0.009

SH3BP5L (UniProt Q7L8J4)
inactive: ibrutinib 0.007 | [1] 0.013 | ralimetinib -0.024 | [2] -0.035 | [3] 0.032 | [4] 0.009 | [5] -0.02 | [6] 0.021 | [7] -0.017 | [8] -0.045

SERAC1 (UniProt Q96JX3)
inactive: ibrutinib 0.066 | [3] -0.115 | [4] 0.051 | [5] -0.193
